The values below come from US20020151063A1, “Methods for modulating apoptotic cell death” (priority 1996, published 2002).

Chains of the proteins cited; added tags and fusions are not shown. Lines headed by an entry give the natural chain unless they say otherwise; changes in a name come on top.
UniProt P67809: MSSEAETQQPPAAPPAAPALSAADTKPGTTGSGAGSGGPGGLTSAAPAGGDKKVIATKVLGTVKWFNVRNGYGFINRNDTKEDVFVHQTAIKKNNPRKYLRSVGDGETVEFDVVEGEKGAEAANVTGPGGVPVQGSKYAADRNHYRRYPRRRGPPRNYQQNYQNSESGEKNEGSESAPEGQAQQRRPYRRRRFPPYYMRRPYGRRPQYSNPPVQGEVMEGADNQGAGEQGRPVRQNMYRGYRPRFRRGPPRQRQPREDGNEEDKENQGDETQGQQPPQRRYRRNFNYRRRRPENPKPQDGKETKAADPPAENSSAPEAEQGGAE

Where cells or extracts were used, other partners may take part. For part of these data: Where a protein sequence is shown, tags need not be part of it. For part of these data: The exact form of at least one protein or probe is not confirmed.

Data set [1] addresses T1, hnRNP D (Homo sapiens) (UniProt Q14103).
T1 sequence (looked up, limits assumed): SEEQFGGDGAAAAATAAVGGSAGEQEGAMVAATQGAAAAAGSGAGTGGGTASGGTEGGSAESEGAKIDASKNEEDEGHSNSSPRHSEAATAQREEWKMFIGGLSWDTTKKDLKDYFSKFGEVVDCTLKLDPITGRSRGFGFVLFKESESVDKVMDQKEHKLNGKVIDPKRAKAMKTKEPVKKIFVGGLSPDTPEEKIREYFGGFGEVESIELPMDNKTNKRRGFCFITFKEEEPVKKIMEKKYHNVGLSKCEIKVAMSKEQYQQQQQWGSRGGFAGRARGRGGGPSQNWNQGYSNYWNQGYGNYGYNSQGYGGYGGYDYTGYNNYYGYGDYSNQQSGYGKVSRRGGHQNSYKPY
The experiment in a line: binding assay. The note with it: expression library screen with single-stranded 3x probe; protein in a lysate after overexpression; single-stranded DNA.

In data set [2] the target is YB-1 (in cells) (Homo sapiens) (UniProt P67809). The experiment in a line: pull-down. The note with it: PS; SK-Mel-5 cells; free YB-1 reduced after streptavidin pulldown; protein in cells; label: biotin; single-stranded DNA.
The target in data set [3] is YB-1 (endogenous, nuclear extract) (UniProt P67809). The experiment in a line: EMSA. The note with it: supershift with anti-YB-1 antibody; protein in an extract; label: 32P; single-stranded DNA. In general terms: Mobility shift assays separate free from complexed probe on a gel.

“AGTTAATGATGTCATTATCCAAA [E1 enhancer probe (3x concatamer, single-stranded)]”: the binding result in data set [1] was “binds”.

“GAACCTGAATTTGGATGCAGTTCCAGAC [S1 lower-strand decoy (oligo 58)]”: the binding result in data set [2] is given as “binds”.

With “GTCTGGAACTGCATCCAAATTCAGGTTC [S1 silencer probe]”, the binding result in data set [3] was “binds”.
